Measurements from “University of Dundee, Small-Polar-MMV Screening Library” (2021), ChEMBL document CHEMBL3988442.

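Whole-parasite assay of Trypanosoma brucei over 72 hours; the read-out is not stated. Concentration: 30 µM. Direction is inferred from retests: higher values go with stronger inhibition. Values scatter widely below zero; nearly all retest evidence comes from the higher of the two concentrations used. About 64,000 compounds were tested under these conditions; 1.5% (about 940) showed 50% or more at least once.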

Values are the deposited “Percent Effect”, in %. The controls that fix the scale are not given in the record; negative values are as filed. This is an unselected part of the compounds tested.

- CC(=O)NCCc1cc(N2CCN(C(C)=O)CC2)nc(C2CC2)n1 | 4.503%
- Cc1cccc(CS(=O)(=O)NCc2nn(C)c3c2COCC3)c1 | -7.496%
- CC(C)c1cc(N2CCC(NS(C)(=O)=O)CC2)n2nccc2n1 | -19.41%
- CN(Cc1ccc(-n2cccn2)cc1)Cc1ncc[nH]1 | 7.939%
- CCOCC(=O)NCC(Cc1cccc(F)c1)N1CCCCC1=O (stereo not drawn) | -10.4%
- Cc1cc(CN2CCCC(NS(C)(=O)=O)C2)ccc1-n1cncn1 (stereo not drawn) | -55.92%
- Cc1cc(=O)n(CC(=O)NC2CCCCC2)c2ccccc12 | -15.43%
- CN(CCN1CCOCC1)S(=O)(=O)CC1CCCC1 | -22.85%
- CCCS(=O)(=O)N1Cc2nccn2CC(Cn2cccn2)C1 (stereo not drawn) | -69.71%
- O=C(c1cc(F)cc(F)c1)N1CCC(O)(C(F)(F)F)CC1 | -7.188%
- Cc1nccn1CCC1CCN(C(=O)C2CC3(CCNCC3)CN2)CC1 (stereo not drawn) | 3.727%
- NC(=O)C1CCN(Cc2ccc(S(=O)(=O)N3CCCC3)o2)CC1 | -8.285%
- Cc1noc(C)c1C(=O)N1CCC(c2[nH]ncc2S(C)(=O)=O)C1 (stereo not drawn) | -19.64%
- CCCN(CCC)S(=O)(=O)c1cc(NC(C)=O)ccc1C | -0.3548%
- O=C(CCNC(=O)c1ccccc1F)NCCNc1cccnc1 | -25.11%
- O=C(O)C(F)(F)F.O=C(O)C(F)(F)F.[H][C@@]12CN(Cc3cccs3)C[C@@]1([H])N(Cc1cccnc1)C(=O)CO2 | -8.687%
- O=C(O)C(F)(F)F.[H][C@@]12C[C@@H](C(=O)N(C)C)CN(CCOc3ccc(Cl)cc3)[C@]1([H])CCO2 | -208.3%
- COc1cc(C2(C(=O)N3CCCC(n4cncn4)C3)CC2)ccc1C (stereo not drawn) | -17.36%
- Cc1ccccc1SC1CCN(C(=O)CCCS(N)(=O)=O)CC1 | 9.268%
- COc1ccccc1C(NC(=O)CN(C)C(C)C)c1noc(C)n1 (stereo not drawn) | -24.81%
- CN(CCc1noc(C2CC2)n1)C(=O)C1(N2CCCC2)CCCC1 | 4.534%
- COCCn1ccnc1CN(Cc1ccccn1)Cc1sccc1C | -1.652%
- O=C(NCCn1ccnc1)c1cccc(Br)c1 | -42%
- COCCN(Cc1cccs1)c1nc(CCN)nc2ccccc12 | 3.665%
- CCS(=O)(=O)CC(=O)NC1(c2ccc(Cl)c(Cl)c2)CC1 | -0.1828%
- Cc1cccc(CN2C(=O)CCC23CCN(Cc2ccoc2)CC3)n1 | -34.82%
- OC1(CN2CCCC(Cn3cncn3)C2)CCCCC1 (stereo not drawn) | -28.2%
- COCCN(C)C(C(=O)O)c1ccc2ccccc2c1 (stereo not drawn) | -42.28%
- Cc1ccoc1C(=O)NC1CCN(Cc2csc3c(F)cccc23)CC1 | 43.8%
- O=C(c1ccco1)N1CCC2(CCC(=O)N2Cc2cccc(F)c2)CC1 | 11.67%
- Cc1ccccc1N1CCN(C(=O)c2cnc(C3CC3)nc2)C(C)C1 (stereo not drawn) | -32.69%
- Cn1ccc(NCc2cc3cc(F)ccc3o2)n1 | -14.09%
- Cc1nnc(N2CCc3cnc(C(C)C)nc3C2)c(C#N)c1C | -16.33%
- COc1cccc(-c2nc(CC(=O)NC3(C)CCS(=O)(=O)C3)cs2)c1 (stereo not drawn) | -13.22%
- COc1c(C2CCCN2C(=O)c2ccc3c(c2)OCO3)c(C)nn1C (stereo not drawn) | 5.199%
- Cc1ccc(CN2CCN(C3CCCC3)CC2CCO)o1 (stereo not drawn) | -4.422%
- CCCN(CCC)S(=O)(=O)NCCc1cc(C)ccc1OC | -26.69%
- CN(C)C(=O)Cc1ccccc1NCc1cccc(F)c1F | 97.11%
- CNS(=O)(=O)c1ccc(CNC(=O)NCC2CCCO2)cc1 (stereo not drawn) | -38.92%
- O=C(NCC(O)c1ccc(F)c(F)c1)c1cccnc1OCC(F)(F)F (stereo not drawn) | 43.12%

Once more, the final 3:

SMILES,effect
CN(C)C(=O)Cc1ccccc1NCc1cccc(F)c1F,97.11
CNS(=O)(=O)c1ccc(CNC(=O)NCC2CCCO2)cc1 (stereo not drawn),-38.92
O=C(NCC(O)c1ccc(F)c(F)c1)c1cccnc1OCC(F)(F)F (stereo not drawn),43.12